PMC4058080
These are yes or no findings as the source states them, for the method shown. Binding seen in cells or lysates may run through a third protein. Some entries that bind do so weakly or less than the wild type.

By UniProt entry, the sequences of proteins in these tests, tags left out. Where a name states a change or a piece, a line headed by the entry shows the natural chain unless it says otherwise. Chains listed by the source or under a name are the forms on record and can include a tag or linker. Residues count along the entry.
UniProt O95166: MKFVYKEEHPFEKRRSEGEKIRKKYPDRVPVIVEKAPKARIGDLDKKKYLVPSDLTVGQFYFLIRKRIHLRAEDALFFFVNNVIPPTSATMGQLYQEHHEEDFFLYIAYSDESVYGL
HaloTag-fused GABARAP40-67: residues 40-67 of O95166

Columns and labels:
[1] = biological target: HaloTag-fused GABARAP40-67 (human) (UniProt O95166); assay: co-IP; HaloTag-fused GABARAP40-67 precipitated, control IgG beside it; blot for PRIP1 (supplementary Fig. S5C)
[2] = biological target: myc-tagged GABARAP (GABAA receptor-associated protein) (human) (UniProt O95166); assay: co-IP; MIN6 cells expressing myc-tagged GABARAP, low (5 mM) or high (30 mM) glucose; lysate in 20 mM HEPES-Na pH 7.5, 150 mM NaCl, 0.1% Triton X-100, 10% glycerol; anti-myc antibody or control rabbit IgG, protein G-Sepharose overnight at 4°C; blot with anti-PRIP1 and anti-PRIP2

Row | binding [1] | binding [2] | Binder
1 | binds | binds | Phospholipase C-related catalytically inactive protein 1 (PRIP1) (protein, UniProt Q3USB7 1-1096) MAEGAASREAPAPLDVAGGEDDPRAGADAASGDAPPPALGGRMRDRRSGVALPGAAGVPADSEAGLLEAARATPRRSSIIKDPSNQKCGGRKKTVSFSSMPSEKKISSAHDCISFMQAGCELKKVRPNSRIYNRFFTLDTDLQALRWEPSKKDLEKAKLDISAIKEIRLGKNTETFRNNGLADQICEDCAFSILHGENYESLDLVANSADVANIWVSGLRYLVSRSKQPLDFIEGNQNTPRFMWLKTVFEAADVDGNGIMLEDTSVELIKQLNPTLKESKIRLKFKEIQKSKEKLTTRVTEEEFCEAFCELCTRPEVYFLLVQISKNKEYLDANDLMLFLEAEQGVTHITEDMCLDIIRRYELSEDGRQKGFLAIDGFTQYLLSPECDIFDPEQKKVAQDMTQPLSHYYINASHNTYLIEDQFRGPADINGYVRALKMGCRSIELDVSDGPDNEPILCNRNNMAMHLSFRSVLEVINKFAFVASEYPLILCLGNHCSLPQQKVMAQQMKKVFGEKLYTEAPLSSESYLPSPEKLKNMIIVKGKKLPSESDLLEGEVTDEDEEAEMSRRMSGDYNGEQKHIWLCRELSDLVSICKSVQHRDFELSMKTQNYWEMCSFSETEASRIANEYPEDFVNYNKKFLSRVYPSAMRIDSSNLNPQDFWNCGCQIVAMNFQTPGPMMDLHTGWFLQNGGCGYVLRPSIMRDEVSYFSANTKGIVPGVSPLVLHIKIISGQNFPKPKGACAKGDVIDPYVCVEIHGIPADCCEQRTKTVQQNSDNPIFDETFEFQVNLPELTMVRFVILDDDYIGDEFIGQYTIPFECLQPGYRHVPLRSFVGDIMEHVTLFVHIAITNRSGGGKPQKRSLSVRMGKKVREYTMLRNIGLKTIDDIFKIAVHPLREAIDMRENMQNAIVSVKELCGLPPIASLKQCLLTLSSRLITSDSTPSVSLVMKDCFPYLEPLGAIPDVQKRMLAAYDLMIQESRVLIEMADTVQEKIVQCQKAGMEFHEELHNLGAKEGLKGRKLNKAIESFAWNITVLKGQGDLLKNAKNEAVENIKQIQLACLSCGLSKGPGGGSEAKGKRSLEAIEEKESSEENGKL
2 | – | binds | Phospholipase C-related catalytically inactive protein 2 (PRIP2) (protein, UniProt Q8K394 1-1128) MAECGRGAAGGALPTSPSPALGAKGALKAGAGEGGGGGGGGRLGHGRARYDSGGVSNGDCSLGVSGDEARTSPGRGPLGVALARTPSPAAGPVPRDSKPGGLPRRSSIIKDGTKQKRERKKTVSFSSMPTEKKISSASDCINSMVEGSELKKVRSNSRIYHRYFLLDADMQSLRWEPSKKDSEKAKIDIKSIKEVRTGKNTDIFRSNGISEQISEDCAFSVIYGENYESLDLVANSADVANIWVTGLRYLISYGKHTLDMLESSQDNMRTSWISQMFSEIDVDGLGHITLCHAVQCIRNLNPGLKTSKIELKFKELHKSKDKAGTEITKEEFIEVFHELCTRPEIYFLLVQFSSNKEFLDTKDLMMFLEAEQGVAHINEEISLEIIHKYEPSKEGQEKGWLSIDGFTNYLMSPDCYIFDPEHKKVCQDMKQPLSHYFINSSHNTYLIEDQFRGPSDITGYIRALKMGCRSVELDVWDGPDNEPVIYTGHTMTSQIVFRSVIDIINKYAFFASEYPLILCLENHCSIKQQKVMVQHMKKILGDKLYTTSPNMEESYLPSPDVLKGKILIKAKKLSSNCSGVEGDVTDEDEGAEMSQRMGKENVEQPNHVPVKRFQLCKELSELVSICKSVQFKEFQVSFQVQKYWEVCSFNEVLASKYANENPGDFVNYNKRFLARVFPSPMRIDSSNMNPQDFWKCGCQIVAMNFQTPGLMMDLNVGWFRQNGNCGYVLRPAIMREEVSFFSANTKDSVPGVSPQLLHIKIISGQNFPKPKGSGAKGDVVDPYVYVEIHGIPADCAEQRTKTVNQNGDAPIFDESFEFQINLPELAMVRFVVLDDDYIGDEFIGQYTIPFECLQTGYRHVPLQSLTGEVLAHASLFVHVAITNRRGGGKPHKRGLSVRKGKKSREYASLRTLWIKTVDEVFKNAQPPIRDATDLRENMQNAVVSFKELCGLSSVANLMQCMLAVSPRFLGPDNNPLVVLNLSEPYPTMELQAIVPEVLKKIVTTYDMMMQSLKALIENADAVYEKIVHCQKAAMEFHEHLHSIGTKEGLKERKLQKAVESFTWNITILKGQADLLKYAKNETLENLKQIHFAAVSCGLNKPGTENSEAQKPRRSLEAIPEKASDENGD
